According to PMC3272158 (Nature structural & molecular biology, 2012):

How the values were obtained:
LeuT (LeuT-WT) [1] = target: LeuT (LeuT-WT) (Aquifex aeolicus, UniProt O67854, L400S); assay: biochemical; details: read-out: % residual binding compared to that in the absence of CMI, at 1 mM CMI
LeuT (LeuT-WT) [2] = target: LeuT (LeuT-WT) (Aquifex aeolicus, UniProt O67854, F253A); assay: biochemical; details: read-out: % residual binding compared to that in the absence of CMI, at 1 mM CMI

`CN(C)CCCN1c2ccccc2CCc2ccc(Cl)cc21` [clomipramine] showed a remaining activity at 1000 µM (LeuT (LeuT-WT) [1]) of 95.6% and a remaining activity at 1000 µM (LeuT (LeuT-WT) [2]) of 5.8%.
